# Values quoted from earlier work as cited in patent US6451784B1 (priority 1996, dated 2002).
# Test system: patients
# Conditions: cited from earlier work
structure (smiles),measurement,value
CC[C@]1(O)C[C@@H]2CN(CCc3c([nH]c4ccccc34)[C@@](C(=O)OC)(c3cc4c(cc3OC)N(C)[C@H]3[C@@](O)(C(=O)OC)[C@H](OC(C)=O)[C@]5(CC)C=CCN6CC[C@]43[C@@H]65)C2)C1 [Vinblastine],Pulmonary toxicity of the IV administered drug,no pulmonary toxicity noted
